Common to all, as to assay: NP40-soluble protein abundance relative to vehicle (solubility fold change) (ratio); higher = more soluble protein in presence of AMP-PNP
In assay [1] the target is T1, UniProt Q15813 and related entries.
T1 sequence (whole entry): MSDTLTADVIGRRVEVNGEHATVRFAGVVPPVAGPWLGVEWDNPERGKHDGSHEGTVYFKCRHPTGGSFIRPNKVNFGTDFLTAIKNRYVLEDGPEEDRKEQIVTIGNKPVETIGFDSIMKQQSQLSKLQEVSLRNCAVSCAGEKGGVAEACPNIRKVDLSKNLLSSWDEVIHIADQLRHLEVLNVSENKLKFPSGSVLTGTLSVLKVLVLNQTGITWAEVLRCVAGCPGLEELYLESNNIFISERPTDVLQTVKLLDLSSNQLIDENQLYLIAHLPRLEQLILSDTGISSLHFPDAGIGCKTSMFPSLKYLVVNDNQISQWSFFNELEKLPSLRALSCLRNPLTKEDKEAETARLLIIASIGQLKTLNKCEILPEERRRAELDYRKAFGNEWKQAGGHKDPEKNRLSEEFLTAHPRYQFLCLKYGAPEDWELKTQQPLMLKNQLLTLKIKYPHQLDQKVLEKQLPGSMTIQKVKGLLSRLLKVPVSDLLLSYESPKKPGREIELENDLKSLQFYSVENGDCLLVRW
The essentials: (§1)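 In three independent experiments, Jurkat crude lysate made by Dounce homogenisation was treated for 10 min at room temperature and then 3 min at 37 °C with eight concentrations ranging from 0.1 to 10 mM. It was then solubilised with 0.8% NP40 plus benzonase for 60 min at 4 °C and ultracentrifuged. The supernatant was TMT-labelled for LC-MS/MS, and each value is the fold change against the detergent-processed vehicle for the same replicate, using vsn-normalised intensities.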

The target in a further assay is T2, UniProt Q16514-2|Q16514.
T2 sequence (whole entry): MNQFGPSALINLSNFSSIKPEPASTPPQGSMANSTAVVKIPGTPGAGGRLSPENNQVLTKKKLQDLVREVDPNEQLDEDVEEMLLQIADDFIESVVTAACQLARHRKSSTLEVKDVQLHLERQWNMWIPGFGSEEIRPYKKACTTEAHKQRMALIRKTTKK
The method in brief:
as §1

The target in assay [2] is T3, UniProt Q2KHR2 and related entries.
T3 sequence (whole entry): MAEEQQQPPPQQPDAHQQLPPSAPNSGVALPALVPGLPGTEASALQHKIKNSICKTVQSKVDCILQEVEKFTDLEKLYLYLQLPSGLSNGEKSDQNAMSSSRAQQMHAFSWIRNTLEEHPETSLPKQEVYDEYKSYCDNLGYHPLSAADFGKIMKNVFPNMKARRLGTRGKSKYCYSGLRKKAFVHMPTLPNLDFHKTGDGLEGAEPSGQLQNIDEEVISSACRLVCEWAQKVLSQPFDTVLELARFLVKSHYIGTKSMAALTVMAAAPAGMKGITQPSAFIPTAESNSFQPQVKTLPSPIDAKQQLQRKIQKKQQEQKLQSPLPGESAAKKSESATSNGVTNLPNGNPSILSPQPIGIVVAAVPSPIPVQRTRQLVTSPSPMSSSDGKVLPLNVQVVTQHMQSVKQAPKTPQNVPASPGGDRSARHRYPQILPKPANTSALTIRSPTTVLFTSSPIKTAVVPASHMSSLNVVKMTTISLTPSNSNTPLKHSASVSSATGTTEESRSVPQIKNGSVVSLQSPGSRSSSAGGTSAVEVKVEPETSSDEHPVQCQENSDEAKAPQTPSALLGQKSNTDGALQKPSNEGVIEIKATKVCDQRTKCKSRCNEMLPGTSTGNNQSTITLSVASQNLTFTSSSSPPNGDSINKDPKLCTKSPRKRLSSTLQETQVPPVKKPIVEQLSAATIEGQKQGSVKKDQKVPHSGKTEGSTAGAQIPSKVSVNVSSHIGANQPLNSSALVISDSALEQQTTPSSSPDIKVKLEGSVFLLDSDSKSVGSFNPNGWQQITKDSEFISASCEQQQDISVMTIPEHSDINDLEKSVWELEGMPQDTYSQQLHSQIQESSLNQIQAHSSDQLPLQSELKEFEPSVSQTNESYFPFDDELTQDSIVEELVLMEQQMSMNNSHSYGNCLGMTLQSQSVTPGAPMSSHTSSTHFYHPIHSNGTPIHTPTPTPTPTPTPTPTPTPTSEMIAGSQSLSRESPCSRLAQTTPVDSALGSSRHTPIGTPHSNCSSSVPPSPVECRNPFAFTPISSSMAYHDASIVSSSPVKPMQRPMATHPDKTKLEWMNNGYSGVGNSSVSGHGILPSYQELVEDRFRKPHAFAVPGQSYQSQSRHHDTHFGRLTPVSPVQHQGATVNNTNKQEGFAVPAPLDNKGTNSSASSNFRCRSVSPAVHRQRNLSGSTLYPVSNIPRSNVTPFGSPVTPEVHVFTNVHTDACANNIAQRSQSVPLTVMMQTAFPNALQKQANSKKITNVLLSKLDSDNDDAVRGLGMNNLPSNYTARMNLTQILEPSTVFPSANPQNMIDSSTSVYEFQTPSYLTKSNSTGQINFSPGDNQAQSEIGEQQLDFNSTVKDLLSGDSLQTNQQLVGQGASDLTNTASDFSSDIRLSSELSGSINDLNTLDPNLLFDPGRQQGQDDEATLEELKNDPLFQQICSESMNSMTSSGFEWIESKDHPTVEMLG
The method in brief: as §1

Assay [3] has as its target T4, UniProt Q58A45 and related entries.
T4 sequence (whole entry): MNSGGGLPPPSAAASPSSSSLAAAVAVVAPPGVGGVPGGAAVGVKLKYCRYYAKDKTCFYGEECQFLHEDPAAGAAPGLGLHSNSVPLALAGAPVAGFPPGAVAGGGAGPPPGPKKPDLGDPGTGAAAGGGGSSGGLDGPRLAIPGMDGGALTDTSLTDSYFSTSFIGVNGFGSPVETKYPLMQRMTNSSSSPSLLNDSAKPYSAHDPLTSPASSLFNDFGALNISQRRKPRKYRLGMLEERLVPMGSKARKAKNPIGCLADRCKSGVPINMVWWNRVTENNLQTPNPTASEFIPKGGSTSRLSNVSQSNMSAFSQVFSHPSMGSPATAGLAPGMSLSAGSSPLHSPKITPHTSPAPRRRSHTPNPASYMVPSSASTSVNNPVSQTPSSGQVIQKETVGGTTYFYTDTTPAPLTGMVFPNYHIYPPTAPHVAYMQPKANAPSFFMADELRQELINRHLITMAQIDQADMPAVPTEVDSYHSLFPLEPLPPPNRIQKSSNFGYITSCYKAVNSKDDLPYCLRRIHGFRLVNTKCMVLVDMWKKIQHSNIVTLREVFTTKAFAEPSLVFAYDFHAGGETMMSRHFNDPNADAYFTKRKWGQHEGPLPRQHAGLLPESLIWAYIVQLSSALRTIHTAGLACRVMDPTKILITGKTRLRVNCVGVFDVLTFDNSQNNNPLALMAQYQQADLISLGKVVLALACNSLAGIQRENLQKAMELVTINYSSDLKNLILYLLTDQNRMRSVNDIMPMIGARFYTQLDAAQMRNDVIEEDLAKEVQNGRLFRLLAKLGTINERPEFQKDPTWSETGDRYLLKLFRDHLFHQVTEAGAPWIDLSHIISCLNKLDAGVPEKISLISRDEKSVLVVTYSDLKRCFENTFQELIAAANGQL
The essentials: as §1

± gives the standard deviation of the averaged measurements. The entries are a selection whose mix differs from that of the whole data set.

Turning to `Nc1ncnc2c1ncn2[C@@H]1O[C@H](COP(=O)(O)OP(=O)(O)NP(=O)(O)O)[C@@H](O)[C@H]1O` [adenylyl imidodiphosphate], the NP40-soluble protein abundance in assay [1] (concentration: 1mM) stood at 1.013 ± 0.01; in assay [1] (concentration: 2mM), 0.983 ± 0.055; in assay [1] (concentration: 4mM), 0.997 ± 0.033; in assay [1] (concentration: 6mM), 0.986 ± 0.018; in assay [1] (concentration: 8mM) it was 0.986 ± 0.027; in assay [1] (concentration: 10mM), 0.977 ± 0.059. Besides, the NP40-soluble protein abundance was determined as 1.03 ± 0.024 in the assay with UniProt Q16514-2|Q16514 (concentration: 1mM); 1.08 ± 0.048 with UniProt Q16514-2|Q16514 (concentration: 2mM); 1.07 ± 0.026 with UniProt Q16514-2|Q16514 (concentration: 4mM); 1.06 ± 0.023 in the assay with UniProt Q16514-2|Q16514 (concentration: 6mM); 1.07 ± 0.056 with UniProt Q16514-2|Q16514 (concentration: 8mM); 1.09 ± 0.086 with UniProt Q16514-2|Q16514 (concentration: 10mM). Also, the NP40-soluble protein abundance in assay [2] (concentration: 1mM) was found to be 1.033 ± 0.0094; in assay [2] (concentration: 2mM), 1.04 ± 0.038; in assay [2] (concentration: 4mM), 1.025 ± 0.0096; in assay [2] (concentration: 6mM), 1.01 ± 0.022; in assay [2] (concentration: 8mM) it was 0.976 ± 0.019; in assay [2] (concentration: 10mM), 0.98 ± 0.013. For the same compound, the NP40-soluble protein abundance in assay [3] (concentration: 1mM) was determined as 1.032 ± 0.0089; in assay [3] (concentration: 2mM) it was 1.02 ± 0.024; in assay [3] (concentration: 4mM), 1.02 ± 0.03; in assay [3] (concentration: 6mM), 0.999 ± 0.026; in assay [3] (concentration: 8mM), 1.03 ± 0.022; in assay [3] (concentration: 10mM), 1.01 ± 0.022.

The record behind these values is the supplement of paper PMC6411743.
